Assay results as given in patent US9241968B2, “Nonapeptide with anti-tumour activity” (Lytix Biopharma AS, priority 2008, dated 2016).
Part of at least one peptide drawing is inferred or uncertain, most often the ends. Non-standard residues stand in square brackets, D forms with d. Residues, ends and D or L forms follow the SMILES beside them. Dip = N[C@H](C(=O)O)C(c1ccccc1)c1ccccc1

Experiments:
[1] = system: murine A20 B-cell lymphoma; experiment: Intratumoral treatment of murine A20 B-cell lymphoma tumours in mice; assay type: in vivo
Procedure: The aim of the study was to investigate the effect of LTX-315 at different dose levels on a murine A20 B-cell lymphoma in mice.
The administration took place by intratumoral injection of LTX-315 dissolved in sterile saline.
Female mice were inoculated subcutaneously in the abdomen with 5 million murine A20 cells (ATCC, LGC Promochem AB, Middlesex, England) in a volume of 50 μl. The mice were divided into four groups (see Table 5 below for details). The intratumoral treatment was initiated when the tumours had reached the desired size of approximately 5 mm in diameter (minimum of 20 mm^2).
Three dose levels of LTX-315, 1 mg (Group 1), 0.5 mg (Group 2) and 0.25 mg (Group 3) per injection, were investigated. The volume was 50 μl for all injections. LTX-315 was dissolved in sterile 0.9% NaCl water solution. This vehicle was used as control (Group 4). All four groups received three injections.
A caliper was used for tumour size measurements and weighing and physical examination were used as health control.
Animals: Specific pathogen-free female Balb/c mice, 6-8 weeks old, supplied form Harlan (England, UK)

[2] = system: murine CT26WT colon carcinoma; experiment: Intratumoral treatment of murine CT26WT colon carcinoma tumours in mice; assay type: in vivo
[3] = all four LTX-315 groups pooled, 32 treated animals

NCCCC[C@H](NC(=O)[C@@H](NC(=O)[C@H](Cc1c[nH]c2ccccc12)NC(=O)[C@H](CCCCN)NC(=O)[C@H](CCCCN)NC(=O)[C@H](Cc1c[nH]c2ccccc12)NC(=O)[C@H](Cc1c[nH]c2ccccc12)NC(=O)[C@H](CCCCN)NC(=O)[C@@H](N)CCCCN)C(c1ccccc1)c1ccccc1)C(N)=O [LTX-315, K-K-W-W-K-K-W-Dip-K-NH2] (H-KKWWKKW[Dip]K-NH2)
anti tumour effect in words ([1]; 0.25 mg/dose (Group 3), first days): small inhibitory effect
anti tumour effect in words ([1]; 0.5 mg per injection (Group 2), first period of the study): strong and rapid anti tumour effect
anti tumour effect in words ([1]; 1 mg per injection (Group 1), first period of the study): strong and rapid anti tumour effect
complete tumour response, treated mice ([1]; Group 1, optimal dose 1 mg x 3): 3 of 7
animals showing complete tumour response (text; tumour completely necrotic, wound crust) ([2]; Group 1: 1 mg on day 1): four out of eight
Free of Tumour at end of Follow-Up ([2]; Group 1: 1 mg on day 1, 8 animals): 50% (4/8)
treated animals with a complete tumour response [2, 3]: 27 of the 32
treated animals with a partial response [2, 3]: four
treated animals without a response to the treatment ([2]; all four LTX-315 groups pooled, 32 treated animals (animal in Group 3)): one
anti tumour effect in words ([2]; all four treatment regimes, 1 mg per injection): strong anti tumour effect
